Assay [1] concerns the target Neuropilin-1 (Nrp-1), human, on the surface of the anti-CD3-stimulated P62 CTL clone (human) (UniProt O14786). Kind of assay: immunofluorescence (flow cytometry) on the P62 CTL clone.
For assay [2] the target is unchanged. As to the kind of experiment: flow cytometry: P62 T-cell clone incubated with Sema-3A-Fc (12 µg/mL), detected with mouse anti-human IgG Fc secondary mAb.

Sequences of proteins named here, by UniProt entry; tags and fusion partners are left off. A change or cut given only in a name is not applied to a line headed by its entry.
UniProt O14786: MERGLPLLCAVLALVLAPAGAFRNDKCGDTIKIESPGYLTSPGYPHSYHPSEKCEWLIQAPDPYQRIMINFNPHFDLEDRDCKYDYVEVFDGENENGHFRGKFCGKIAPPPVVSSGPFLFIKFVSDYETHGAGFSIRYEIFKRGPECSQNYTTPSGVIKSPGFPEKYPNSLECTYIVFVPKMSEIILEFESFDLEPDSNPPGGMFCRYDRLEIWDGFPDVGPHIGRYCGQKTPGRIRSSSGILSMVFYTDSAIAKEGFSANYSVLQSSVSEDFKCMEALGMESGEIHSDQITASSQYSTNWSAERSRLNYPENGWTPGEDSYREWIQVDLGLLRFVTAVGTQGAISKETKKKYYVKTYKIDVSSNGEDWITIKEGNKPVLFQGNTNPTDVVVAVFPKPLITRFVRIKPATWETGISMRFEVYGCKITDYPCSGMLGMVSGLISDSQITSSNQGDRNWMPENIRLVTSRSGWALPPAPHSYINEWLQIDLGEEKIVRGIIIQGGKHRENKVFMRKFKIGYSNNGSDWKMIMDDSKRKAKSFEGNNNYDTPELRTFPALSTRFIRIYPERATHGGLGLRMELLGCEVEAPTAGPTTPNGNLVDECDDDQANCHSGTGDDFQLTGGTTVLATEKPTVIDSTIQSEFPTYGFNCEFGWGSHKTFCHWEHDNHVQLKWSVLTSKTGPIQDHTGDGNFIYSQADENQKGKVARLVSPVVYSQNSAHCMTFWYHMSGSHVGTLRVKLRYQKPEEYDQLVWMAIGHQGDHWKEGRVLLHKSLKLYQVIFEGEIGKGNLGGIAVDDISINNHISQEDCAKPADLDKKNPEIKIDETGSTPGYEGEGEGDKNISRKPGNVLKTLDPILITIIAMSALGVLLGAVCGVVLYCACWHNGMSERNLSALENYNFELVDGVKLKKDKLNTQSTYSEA

These are yes or no findings as the source states them, for the method shown. Some results given as binding are weak or reduced against the parent protein; the word gives no strength. Sequences can lack the tags named with a protein.

B1: rSema-3A-Fc (Fc fusion, not shown: a dimerising Fc or GST)
chain: KNNVPRLKLSYKEMLESNNVITFNGLANSSSYHTFLLDEERSRLYVGAKDHIFSFDLVNIKDFQKIVWPVSYTRRDECKWAGKDILKECANFIKVLKAYNQTHLYACGTGAFHPICTYIEIGHHPEDNIFKLENSHFENGRGKSPYDPKLLTASLLIDGELYSGTAADFMGRDFAIFRTLGHHHPIRTEQHDSRWLNDPKFISAHLISESDNPEDDKVYFFFRENAIDGEHSGKATHARIGQICKNDFGGHRSLVNKWTTFLKARLICSVPGPNGIDTHFDELQDVFLMNFKDPKNPVVYGVFTTSSNIFKGSAVCMYSMSDVRRVFLGPYAHRDGPNYQWVPYQGRVPYPRPGTCPSKTFGGFDSTKDLPDDVITFARSHPAMYNPVFPMNNRPIVIKTDVNYQFTQIVVDRVDAEDGQYDVMFIGTDVGTVLKVVSIPKETWYDLEEVLLEEMTVFREPTAISAMELSTKQQQLYIGSTAGVAQLPLHRCDIYGKACAECCLARDPYCAWDGSACSRYFPTAKRRTRRQDIRNGDPLTHCSDLHHDNHHGHSPEERIIYGVENSSTFLECSPKSQRALVYWQFQRRNEERKEEIRVDDHIIRTDQGLLLRSLQQKDSGNYLCHAVEHGFIQTLLKVTLEVIDTEHLEELLHKDDDGDGSKTKEMSNSMTPSQKVWYRDFMQLINHPNLNTMDEFCEQVWKRDRKQRRQRPGHTPGNSNKWKHLQENKKGRNRRTHEFERAPRSV
In the case of B1, the binding entry in assay [1] and in assay [2] was “binds” each time.

The values above are taken from patent publication US20220023342A1.
